{"sequences": {"note": "Amino acid sequences for entries named in this document (tags omitted).", "UniProt Q7KN62": "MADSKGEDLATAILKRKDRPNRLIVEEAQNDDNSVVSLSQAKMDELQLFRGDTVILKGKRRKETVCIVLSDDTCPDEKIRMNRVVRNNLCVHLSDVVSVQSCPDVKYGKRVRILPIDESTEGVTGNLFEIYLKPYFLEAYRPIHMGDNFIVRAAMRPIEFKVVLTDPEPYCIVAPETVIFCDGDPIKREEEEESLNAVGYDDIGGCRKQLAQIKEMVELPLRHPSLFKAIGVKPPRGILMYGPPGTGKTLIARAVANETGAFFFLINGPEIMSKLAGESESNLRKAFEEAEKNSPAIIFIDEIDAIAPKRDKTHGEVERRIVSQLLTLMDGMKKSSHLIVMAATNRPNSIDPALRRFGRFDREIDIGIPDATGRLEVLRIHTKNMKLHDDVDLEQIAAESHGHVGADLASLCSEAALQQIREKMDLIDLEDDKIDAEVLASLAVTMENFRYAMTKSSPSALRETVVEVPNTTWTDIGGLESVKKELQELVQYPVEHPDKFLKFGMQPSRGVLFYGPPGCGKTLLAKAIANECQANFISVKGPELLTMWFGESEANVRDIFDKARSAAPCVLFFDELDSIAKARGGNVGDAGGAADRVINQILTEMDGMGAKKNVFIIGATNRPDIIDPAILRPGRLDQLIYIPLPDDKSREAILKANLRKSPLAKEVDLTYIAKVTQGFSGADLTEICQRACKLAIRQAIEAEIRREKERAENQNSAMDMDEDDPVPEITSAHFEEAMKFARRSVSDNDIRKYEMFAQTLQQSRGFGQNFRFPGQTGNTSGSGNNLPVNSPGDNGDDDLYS"}, "source": "paper PMC3653402", "molecules": {"B1": {"name": "dNpl4 (protein, UniProt Q9VBP9 1-652)", "chain": "MACAPLLLEQFIYKKRNFAYAFVRHRLFVLCKQSLIRVQSAEGIKRIEISPKSNLKHLYDSVQNALKVDGFGLFKERNFLTELQASGSQLVGTSLRHGDMVYLKQMAGTSSRRTSTTVLDSQAFKTSTISNPNSARPSFNVIEDDVDQALSKADGTIKRERDSKLCHHNANGRCVHCSALEPYDESYLKEHNIKHLSFHSYIRKQTSGMDQGKYFVFDDINCRIKPGCREHPPWPKGICSKCQPSAITLNRQTYRHVDNVMFENTKIVERFLNYWRTTGHQRMGYLYGTYEQHTDVPLGIRAKVAAIYEPPQESTRDSINIQPDEFADDVDAVASALGLKKIGWIFTDLITDDASIGTVKQIRGIESHFITAQECITAGELQNRHPNPCKYASNGVFGSKFVTICVTGDKTKQVHMEGYAVSAQCMALVRDNCLIPTKDAPELGYVRESTDKQYVPDVFYKEKDLYGNEVQRLARPLPVEYLLVDVPASTPLQPIYTFTEYDKRQPFPIENRYIDGHLQDFNALSCYLSAWGEEEFLEAISDFHLLVYLYKMDMLPLRQHMGPLLEAVRTKNPNQAAQFKVVDVWKLLESLIQASSGGSGGTTSYPSGGASASAGASGSEAMDLDANTWTCNHCTFINRGELTSCEICSLPR"}, "B2": {"name": "dUfd1 (protein, UniProt Q9VTF9 1-316)", "chain": "MFHFSGFNMMFPEGRNFHANYKCFSVSMLPGNERTDVEKGGKIIMPPSALDTLTRLNVEYPMLFKLTNVKKSRSSHAGVLEFVADEGKCYLPHWMMENLLLGEGDILNIESVSLPVATFSKFQPHSTDFLDITNPKAVLENALRNFACLTRGDVIAIKYNKKVYELCVLETKPGNAVSIIECDMNVEFEAPVGYKDHSETQASGSGQQGAAGTVGGEIAGATNAILEEVVETFKGSGVRLDGKKKKESQLETPVVKKVLARGVPDYDFQFGLIRFDRNIRPISDRSQEDDAVAGNADASDAESFHGTGFSMKKTRK"}}, "molecular_target": "T1, Drosophila Hrd1 fused to a C-terminal TAP tag (Drosophila) (UniProt Q95SP2)", "T1 sequence": "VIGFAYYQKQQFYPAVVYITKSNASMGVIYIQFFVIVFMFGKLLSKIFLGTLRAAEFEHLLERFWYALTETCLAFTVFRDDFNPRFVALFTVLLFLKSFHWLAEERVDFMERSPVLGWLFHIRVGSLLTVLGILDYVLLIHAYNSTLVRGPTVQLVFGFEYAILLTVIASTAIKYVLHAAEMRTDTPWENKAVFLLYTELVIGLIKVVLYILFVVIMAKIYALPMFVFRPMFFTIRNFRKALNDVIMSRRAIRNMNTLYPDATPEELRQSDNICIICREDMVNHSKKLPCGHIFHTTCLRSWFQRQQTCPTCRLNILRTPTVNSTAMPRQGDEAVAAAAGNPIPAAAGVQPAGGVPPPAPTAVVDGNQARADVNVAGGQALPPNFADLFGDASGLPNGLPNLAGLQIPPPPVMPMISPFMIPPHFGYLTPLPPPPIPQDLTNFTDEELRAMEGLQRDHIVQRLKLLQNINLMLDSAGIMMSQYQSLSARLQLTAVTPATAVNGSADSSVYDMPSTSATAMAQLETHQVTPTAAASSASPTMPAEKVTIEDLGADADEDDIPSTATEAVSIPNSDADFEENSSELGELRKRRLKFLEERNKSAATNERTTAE", "assay": "affinity purification with mass spectrometry; tandem affinity purification of dHrd1-TAP from 1% digitonin lysates of S2/dHrd1-TAP cells: human IgG-Sepharose 16 h at 4°C, TEV elution, anti-FLAG agarose 5 h at 4°C, washes in 0.1% digitonin, elution with FLAG peptide; SDS-PAGE, Colloidal Blue, bands identified by tandem mass spectrometry", "note": "Results are given in words; binding and its absence hold for the method and conditions named. In cells and extracts the contact can be indirect. A yes stands for co-enrichment or nearness to the bait. Other partners may have been found. Sequences can lack the tags named with a protein."}
{"molecule": "DHR23 (Drosophila (endogenous in S2 cells))", "values": [{"measurement": "binding", "result": "binds"}]}
{"molecule": "RE16341p (Drosophila (endogenous in S2 cells))", "values": [{"measurement": "binding", "result": "binds"}]}
{"molecule": "Ter94 (from UniProt Q7KN62 1-801)", "values": [{"measurement": "binding", "result": "binds"}]}
{"molecule": "dHerp (Drosophila (endogenous in S2 cells))", "values": [{"measurement": "binding", "result": "binds"}]}
{"molecule": "dOs9 (Drosophila (endogenous in S2 cells))", "values": [{"measurement": "binding", "result": "binds"}]}
{"molecule": "dSel1 (Drosophila (endogenous in S2 cells))", "values": [{"measurement": "binding", "result": "binds"}]}
{"molecule": "dUbc7 (Drosophila (endogenous in S2 cells)) (enzyme)", "values": [{"measurement": "binding", "result": "binds"}]}
{"molecule": "dUbiquilin (Drosophila (endogenous in S2 cells))", "values": [{"measurement": "binding", "result": "binds"}]}
{"molecule": "dUbxd2 (Drosophila (endogenous in S2 cells))", "values": [{"measurement": "binding", "result": "binds"}]}
{"molecule": "dUbxd8 (Drosophila (endogenous in S2 cells))", "values": [{"measurement": "binding", "result": "binds"}]}
{"molecule": "B1", "values": [{"measurement": "binding", "result": "binds"}]}
{"molecule": "B2", "values": [{"measurement": "binding", "result": "binds"}]}
